Results taken from US8372865B2, “Dihydropyridone amides as P2X7 modulators” (Roche Palo Alto LLC, priority 2008, dated 2013).
The structures given here were assigned with low confidence; some may be wrong.

By UniProt entry, the sequences of proteins in these tests, tags left out.
UniProt Q99572, whole entry: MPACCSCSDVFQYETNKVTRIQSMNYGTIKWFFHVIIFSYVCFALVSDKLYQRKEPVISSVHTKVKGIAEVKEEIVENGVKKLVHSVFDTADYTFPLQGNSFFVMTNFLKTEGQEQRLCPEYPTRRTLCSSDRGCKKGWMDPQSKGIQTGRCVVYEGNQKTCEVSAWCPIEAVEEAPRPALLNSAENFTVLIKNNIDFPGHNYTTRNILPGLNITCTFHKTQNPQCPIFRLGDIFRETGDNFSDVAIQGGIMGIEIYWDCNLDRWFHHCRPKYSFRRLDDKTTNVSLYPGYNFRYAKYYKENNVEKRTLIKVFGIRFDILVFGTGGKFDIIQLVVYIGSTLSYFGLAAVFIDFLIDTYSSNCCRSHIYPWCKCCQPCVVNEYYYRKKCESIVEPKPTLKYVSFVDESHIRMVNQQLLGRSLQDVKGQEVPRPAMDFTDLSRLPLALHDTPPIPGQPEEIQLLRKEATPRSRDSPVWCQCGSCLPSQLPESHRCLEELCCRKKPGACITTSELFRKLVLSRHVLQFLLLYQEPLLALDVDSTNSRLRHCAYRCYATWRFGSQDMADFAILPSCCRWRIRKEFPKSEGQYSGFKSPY

Target: P2X7 receptor (UniProt Q99572)
Assay: pKi of Table 1 (assay not stated)

In the case of CCc1cc2c(cc1NC(=O)C1=CNC(=O)C[C@H]1c1ccc(F)cc1)NC(=O)CO2, the pKi is reported as 5.775.
